PubChem BioAssay AID1671195 – Yale University – 2021
Aim: 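Genes whose knockdown alters LDL uptake in liver cancer cells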 (primary screen). System: human Huh7 hepatoma cells. Reagent: siRNA pool against human genes, 18 nM. Time to read-out: about 2 to 2.5 days of knockdown, then 8 h LDL uptake. Challenge: DiI-labelled LDL at 30 µg/ml for 8 h, in lipoprotein-deficient serum medium. Measurement: 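Per-cell DiI-LDL intensity by automated imaging; well means scaled to the plate median and given as a robust z-score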. Direction: robust z-score: higher = more LDL uptake after knockdown. Rule for the call: 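Active when two or more replicates show a robust z-score above 2 or below -2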.
The whole screen tested about 22,000 reagents; below is a part drawn at random. Over the whole deposit, about 1,510 (6.9%) were called active. 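Active includes knockdowns raising or lowering LDL uptake; positive z-scores mean more uptake, negative mean less.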 A number with no mark means an inactive call. No sequences are given here.

TGOLN2 (trans-golgi network protein 2) | robust z-score, replicate 1: 0.33; robust z-score, replicate 2: -1.3; robust z-score, replicate 3: 0.815
LINC00887 (long independently transcribed non-coding RNA 887) | robust z-score, replicate 1: -0.539; robust z-score, replicate 2: -0.725; robust z-score, replicate 3: -0.923
CCR6 (C-C motif chemokine receptor 6) | robust z-score, replicate 1: 1.78; robust z-score, replicate 2: 0.411; robust z-score, replicate 3: 1.47
LOC442096 (retired record) | robust z-score, replicate 1: -0.424; robust z-score, replicate 2: 0.0146; robust z-score, replicate 3: -0.12
SCRN2 (secernin 2) | robust z-score, replicate 1: 1.08; robust z-score, replicate 2: 1.79; robust z-score, replicate 3: 0.749
RGS17 (regulator of G protein signaling 17) | robust z-score, replicate 1: -0.862; robust z-score, replicate 2: -1.42; robust z-score, replicate 3: -1.18
LOC151273 (retired record) | robust z-score, replicate 1: 2.33; robust z-score, replicate 2: 0.908; robust z-score, replicate 3: 1.03
TMEM81 (transmembrane protein 81) | robust z-score, replicate 1: 1.55; robust z-score, replicate 2: 1.1; robust z-score, replicate 3: 1.52
RPL37A (ribosomal protein L37a) | robust z-score, replicate 1: -0.82; robust z-score, replicate 2: -0.937; robust z-score, replicate 3: -0.408
PLCD3 (phospholipase C delta 3) | robust z-score, replicate 1: -0.798; robust z-score, replicate 2: -0.688; robust z-score, replicate 3: -0.914
SEMA3F (semaphorin 3F) | robust z-score, replicate 1: 0.84; robust z-score, replicate 2: 0.666; robust z-score, replicate 3: -0.111
CCDC27 (coiled-coil domain containing 27) | robust z-score, replicate 1: -0.901; robust z-score, replicate 2: -0.623; robust z-score, replicate 3: -0.527
SHOC2 (SHOC2 leucine rich repeat scaffold protein) | robust z-score, replicate 1: 0.874; robust z-score, replicate 2: 0.806; robust z-score, replicate 3: 1.31
MYOM1 (myomesin 1) | robust z-score, replicate 1: -0.787; robust z-score, replicate 2: 1.84; robust z-score, replicate 3: 0.5
C7orf57 (chromosome 7 open reading frame 57) | robust z-score, replicate 1: -0.199; robust z-score, replicate 2: -0.673; robust z-score, replicate 3: -0.79
GOLM2 (golgi membrane protein 2) | robust z-score, replicate 1: -0.866; robust z-score, replicate 2: 0.569; robust z-score, replicate 3: 0.0263
PTGES3P1 (prostaglandin E synthase 3 pseudogene 1) | robust z-score, replicate 1: 0.848; robust z-score, replicate 2: 0.622; robust z-score, replicate 3: 0.572
TPSG1 (tryptase gamma 1) | robust z-score, replicate 1: 3.34 (active); robust z-score, replicate 2: 2.97; robust z-score, replicate 3: 2.85
RAB11FIP2 (RAB11 family interacting protein 2) | robust z-score, replicate 1: 0.313; robust z-score, replicate 2: -0.737; robust z-score, replicate 3: 0.41
LOC400216 (retired record) | robust z-score, replicate 1: 1.66; robust z-score, replicate 2: 0.992; robust z-score, replicate 3: 1.26
PYGL (glycogen phosphorylase L) | robust z-score, replicate 1: -0.22; robust z-score, replicate 2: 0.0583; robust z-score, replicate 3: 0.194
FAM133A (family with sequence similarity 133 member A) | robust z-score, replicate 1: 2.05 (active); robust z-score, replicate 2: 1.7; robust z-score, replicate 3: 2.06
SPP2 (secreted phosphoprotein 2) | robust z-score, replicate 1: -0.932; robust z-score, replicate 2: -0.0506; robust z-score, replicate 3: -0.0423
TTC39A (tetratricopeptide repeat domain 39A) | robust z-score, replicate 1: 1.52; robust z-score, replicate 2: 0.142; robust z-score, replicate 3: 1.15
ARRDC2 (arrestin domain containing 2) | robust z-score, replicate 1: -2.02; robust z-score, replicate 2: -0.822; robust z-score, replicate 3: -0.371
KCMF1 (potassium channel modulatory factor 1) | robust z-score, replicate 1: 1.82; robust z-score, replicate 2: 1.32; robust z-score, replicate 3: 1.71
ZNF774 (zinc finger protein 774) | robust z-score, replicate 1: -0.868; robust z-score, replicate 2: -0.945; robust z-score, replicate 3: -0.952
OSGEPL1 (O-sialoglycoprotein endopeptidase like 1) | robust z-score, replicate 1: -0.264; robust z-score, replicate 2: 0.818; robust z-score, replicate 3: 0.202
C5orf46 (chromosome 5 open reading frame 46) | robust z-score, replicate 1: -0.567; robust z-score, replicate 2: -0.175; robust z-score, replicate 3: -0.0788
RPL36AP45 (ribosomal protein L36a pseudogene 45) | robust z-score, replicate 1: 0.389; robust z-score, replicate 2: 0.291; robust z-score, replicate 3: 0.509
